These are yes or no findings as the source states them, for the method shown. Binding seen in cells or lysates may run through a third protein. Some binding calls cover weakened binding; strength is not graded here.

Chains of the proteins cited; added tags and fusions are not shown.
UniProt O35973: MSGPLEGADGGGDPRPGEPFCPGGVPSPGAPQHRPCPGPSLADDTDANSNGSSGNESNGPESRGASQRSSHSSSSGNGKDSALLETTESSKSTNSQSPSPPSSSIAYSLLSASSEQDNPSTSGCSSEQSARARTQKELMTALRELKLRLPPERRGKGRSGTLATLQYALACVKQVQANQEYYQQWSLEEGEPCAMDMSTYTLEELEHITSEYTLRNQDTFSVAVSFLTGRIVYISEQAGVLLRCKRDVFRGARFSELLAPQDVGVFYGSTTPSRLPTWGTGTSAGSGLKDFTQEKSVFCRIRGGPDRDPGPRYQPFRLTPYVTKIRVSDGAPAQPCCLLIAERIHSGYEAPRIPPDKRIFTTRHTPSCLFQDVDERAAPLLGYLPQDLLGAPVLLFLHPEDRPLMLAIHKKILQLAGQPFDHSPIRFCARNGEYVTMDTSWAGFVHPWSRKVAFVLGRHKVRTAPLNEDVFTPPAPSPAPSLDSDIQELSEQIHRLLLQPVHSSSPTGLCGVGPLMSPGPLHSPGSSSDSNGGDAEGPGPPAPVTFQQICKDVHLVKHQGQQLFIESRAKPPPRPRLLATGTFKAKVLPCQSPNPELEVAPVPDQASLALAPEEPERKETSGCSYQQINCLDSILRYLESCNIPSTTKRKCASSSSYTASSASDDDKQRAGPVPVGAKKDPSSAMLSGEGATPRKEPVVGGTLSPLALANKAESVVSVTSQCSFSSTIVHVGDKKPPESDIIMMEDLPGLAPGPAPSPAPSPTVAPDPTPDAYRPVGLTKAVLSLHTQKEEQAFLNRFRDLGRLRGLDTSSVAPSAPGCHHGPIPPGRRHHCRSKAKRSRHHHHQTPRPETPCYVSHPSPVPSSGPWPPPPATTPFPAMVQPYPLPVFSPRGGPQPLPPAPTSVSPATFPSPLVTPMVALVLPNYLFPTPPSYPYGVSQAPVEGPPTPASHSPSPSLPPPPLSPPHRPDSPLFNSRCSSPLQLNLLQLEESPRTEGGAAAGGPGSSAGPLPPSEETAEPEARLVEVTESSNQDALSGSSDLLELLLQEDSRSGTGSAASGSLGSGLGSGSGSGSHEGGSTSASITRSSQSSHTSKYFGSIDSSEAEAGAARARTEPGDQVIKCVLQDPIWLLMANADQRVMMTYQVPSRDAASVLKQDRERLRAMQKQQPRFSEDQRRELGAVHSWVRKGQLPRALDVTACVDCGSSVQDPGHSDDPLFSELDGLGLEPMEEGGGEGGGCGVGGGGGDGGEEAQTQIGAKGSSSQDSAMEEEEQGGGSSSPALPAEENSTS
UniProt O54943: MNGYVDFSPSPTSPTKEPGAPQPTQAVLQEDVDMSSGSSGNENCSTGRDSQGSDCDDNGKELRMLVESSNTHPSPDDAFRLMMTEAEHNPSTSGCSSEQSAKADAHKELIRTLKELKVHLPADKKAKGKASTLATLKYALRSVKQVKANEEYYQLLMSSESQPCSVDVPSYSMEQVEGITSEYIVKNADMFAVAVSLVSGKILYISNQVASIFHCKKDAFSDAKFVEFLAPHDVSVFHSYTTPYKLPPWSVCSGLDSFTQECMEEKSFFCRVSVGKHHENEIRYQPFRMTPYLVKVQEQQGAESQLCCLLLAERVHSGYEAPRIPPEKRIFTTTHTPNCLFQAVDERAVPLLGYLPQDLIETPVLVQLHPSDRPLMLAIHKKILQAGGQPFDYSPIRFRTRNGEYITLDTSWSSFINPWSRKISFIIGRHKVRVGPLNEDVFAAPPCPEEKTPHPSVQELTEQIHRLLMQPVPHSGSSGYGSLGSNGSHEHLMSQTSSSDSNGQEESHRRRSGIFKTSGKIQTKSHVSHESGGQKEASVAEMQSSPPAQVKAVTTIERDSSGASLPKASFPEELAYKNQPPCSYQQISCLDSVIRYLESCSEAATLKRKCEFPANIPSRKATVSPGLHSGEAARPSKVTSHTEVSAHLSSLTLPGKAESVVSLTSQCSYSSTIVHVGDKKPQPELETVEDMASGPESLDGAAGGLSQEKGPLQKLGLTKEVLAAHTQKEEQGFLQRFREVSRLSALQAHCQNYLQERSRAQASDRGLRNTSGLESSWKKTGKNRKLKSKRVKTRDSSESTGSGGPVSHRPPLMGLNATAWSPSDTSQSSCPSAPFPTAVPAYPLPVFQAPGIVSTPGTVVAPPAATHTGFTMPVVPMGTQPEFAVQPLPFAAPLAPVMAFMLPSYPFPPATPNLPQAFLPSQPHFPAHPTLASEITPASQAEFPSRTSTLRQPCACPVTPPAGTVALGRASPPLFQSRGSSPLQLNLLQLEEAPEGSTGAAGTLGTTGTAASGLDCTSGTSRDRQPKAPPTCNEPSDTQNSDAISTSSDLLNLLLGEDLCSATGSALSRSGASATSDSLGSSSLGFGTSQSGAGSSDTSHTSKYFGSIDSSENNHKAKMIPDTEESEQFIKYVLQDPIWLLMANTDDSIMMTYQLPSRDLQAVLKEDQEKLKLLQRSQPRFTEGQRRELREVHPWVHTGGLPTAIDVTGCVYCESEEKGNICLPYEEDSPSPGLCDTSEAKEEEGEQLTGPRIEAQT
UniProt P49674: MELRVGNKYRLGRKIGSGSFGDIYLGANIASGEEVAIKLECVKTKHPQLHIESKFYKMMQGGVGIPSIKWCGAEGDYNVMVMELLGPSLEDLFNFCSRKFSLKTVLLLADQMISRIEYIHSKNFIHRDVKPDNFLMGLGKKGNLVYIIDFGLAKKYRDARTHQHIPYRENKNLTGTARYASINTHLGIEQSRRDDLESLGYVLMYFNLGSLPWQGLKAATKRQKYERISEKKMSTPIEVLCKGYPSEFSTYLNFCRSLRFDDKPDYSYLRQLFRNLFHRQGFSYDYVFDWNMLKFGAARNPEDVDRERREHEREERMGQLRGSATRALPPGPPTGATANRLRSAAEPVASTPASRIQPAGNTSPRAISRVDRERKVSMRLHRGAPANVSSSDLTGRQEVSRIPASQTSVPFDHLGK

The text below walks through data of PMC11223080.

Experiment [1] deals with PER1, wildtype (UniProt O35973). Description: co-IP; PER1 or PER2 immunoprecipitated from 75 ug of lysate of transfected HEK293 cells with antibody on Protein G Dynabeads, 30 min at room temperature, washed thrice with PBS-T (0.1% tween-20); immunoblot for CK1ε. A general note: In western blotting, separated proteins are transferred to a membrane and probed.
The target of experiment [2] is mouse PER2 (mPER2), wildtype (mouse) (UniProt O54943). The description is as above.

With “casein kinase 1ε (CK1ε) (from UniProt P49674 1-416) (enzyme)”, the binding entry in experiment [1] and in experiment [2] was “binds” in each case.
